In article PMC13434726:
These are yes or no findings as the source states them, for the method shown. In cells and extracts the contact can be indirect. Some binding calls cover weakened binding; strength is not graded here.

Amino acid sequences for entries named in this document (tags omitted).
UniProt Q04206: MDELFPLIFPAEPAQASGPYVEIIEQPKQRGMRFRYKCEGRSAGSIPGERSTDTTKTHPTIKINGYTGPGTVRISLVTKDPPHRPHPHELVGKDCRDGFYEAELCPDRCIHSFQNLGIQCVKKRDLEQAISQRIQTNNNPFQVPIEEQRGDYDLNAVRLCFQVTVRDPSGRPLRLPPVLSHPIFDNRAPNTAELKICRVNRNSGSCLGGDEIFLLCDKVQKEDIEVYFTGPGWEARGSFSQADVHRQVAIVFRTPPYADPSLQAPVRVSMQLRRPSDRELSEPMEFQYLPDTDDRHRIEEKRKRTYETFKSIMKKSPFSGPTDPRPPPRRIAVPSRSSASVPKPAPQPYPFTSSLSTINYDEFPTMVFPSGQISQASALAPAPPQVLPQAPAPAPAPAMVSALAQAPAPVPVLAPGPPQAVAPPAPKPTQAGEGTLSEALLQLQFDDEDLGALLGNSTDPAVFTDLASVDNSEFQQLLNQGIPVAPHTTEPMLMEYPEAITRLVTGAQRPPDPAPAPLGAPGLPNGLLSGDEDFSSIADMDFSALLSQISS

Tests used:
GFP-COMMD2 [1] = biological target: GFP-COMMD2 (UniProt Q86X83); assay: condition: only cells not challenged with TIGR4 (6B ST90 ± IL-1β, IL-1β controls); co-IP
GFP-COMMD2 [2] = biological target: GFP-COMMD2 (UniProt Q86X83); assay: co-IP

Substance	binding (GFP-COMMD2 [1])	binding (GFP-COMMD2 [2])
p62/SQSTM1 (from UniProt Q13501 1-440)	no binding	binds
p65 (from UniProt Q04206 1-551)	no binding	binds
